# Source: publication PMC8400980
# By UniProt entry, the sequences of proteins in these tests, tags left out.
# UniProt Q2GI62: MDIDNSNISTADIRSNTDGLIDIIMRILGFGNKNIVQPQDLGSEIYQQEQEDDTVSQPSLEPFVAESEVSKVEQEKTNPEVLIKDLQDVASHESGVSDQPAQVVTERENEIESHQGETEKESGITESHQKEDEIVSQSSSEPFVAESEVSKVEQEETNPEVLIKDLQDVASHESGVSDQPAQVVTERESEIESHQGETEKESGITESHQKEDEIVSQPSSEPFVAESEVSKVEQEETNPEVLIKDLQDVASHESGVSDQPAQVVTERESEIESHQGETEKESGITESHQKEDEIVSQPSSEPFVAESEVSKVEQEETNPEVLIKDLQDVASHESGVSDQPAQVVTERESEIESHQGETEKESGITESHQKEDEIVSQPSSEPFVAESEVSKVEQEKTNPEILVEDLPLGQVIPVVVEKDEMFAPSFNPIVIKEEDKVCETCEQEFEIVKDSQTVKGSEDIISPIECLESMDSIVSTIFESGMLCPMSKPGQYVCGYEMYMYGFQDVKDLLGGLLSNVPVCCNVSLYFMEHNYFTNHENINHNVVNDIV
# UniProt P06733: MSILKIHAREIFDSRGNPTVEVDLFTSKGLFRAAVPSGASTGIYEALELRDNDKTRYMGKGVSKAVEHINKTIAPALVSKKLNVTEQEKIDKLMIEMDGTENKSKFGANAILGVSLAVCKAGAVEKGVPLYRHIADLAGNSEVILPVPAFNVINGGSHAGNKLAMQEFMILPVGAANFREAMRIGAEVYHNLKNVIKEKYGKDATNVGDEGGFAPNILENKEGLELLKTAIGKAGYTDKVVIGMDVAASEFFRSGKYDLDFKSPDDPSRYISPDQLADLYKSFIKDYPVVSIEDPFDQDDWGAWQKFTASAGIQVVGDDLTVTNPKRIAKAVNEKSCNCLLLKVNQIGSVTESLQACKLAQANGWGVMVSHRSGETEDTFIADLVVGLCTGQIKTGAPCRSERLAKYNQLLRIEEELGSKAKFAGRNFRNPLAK
# These are yes or no findings as the source states them, for the method shown. In cells and extracts the contact can be indirect. Some entries that bind do so weakly or less than the wild type.
# Biological target: Ehrlichia chaffeensis TRP120 (native, in infected THP-1 cells) (Ehrlichia chaffeensis (Arkansas strain)) (UniProt Q2GI62)
# Assay: co-IP
substance,measurement,value
"Alpha-enolase (ENO-1), endogenous in THP-1 cells (from UniProt P06733 1-434)",binding,binds
